Measurements taken from the supplement of paper PMC10849652.
This is one part of the list.

Protein sequences, listed by entry. Tags and fused reporters are not part of them. Lines headed by an entry give the natural chain unless they say otherwise; changes in a name come on top.
UniProt O15228: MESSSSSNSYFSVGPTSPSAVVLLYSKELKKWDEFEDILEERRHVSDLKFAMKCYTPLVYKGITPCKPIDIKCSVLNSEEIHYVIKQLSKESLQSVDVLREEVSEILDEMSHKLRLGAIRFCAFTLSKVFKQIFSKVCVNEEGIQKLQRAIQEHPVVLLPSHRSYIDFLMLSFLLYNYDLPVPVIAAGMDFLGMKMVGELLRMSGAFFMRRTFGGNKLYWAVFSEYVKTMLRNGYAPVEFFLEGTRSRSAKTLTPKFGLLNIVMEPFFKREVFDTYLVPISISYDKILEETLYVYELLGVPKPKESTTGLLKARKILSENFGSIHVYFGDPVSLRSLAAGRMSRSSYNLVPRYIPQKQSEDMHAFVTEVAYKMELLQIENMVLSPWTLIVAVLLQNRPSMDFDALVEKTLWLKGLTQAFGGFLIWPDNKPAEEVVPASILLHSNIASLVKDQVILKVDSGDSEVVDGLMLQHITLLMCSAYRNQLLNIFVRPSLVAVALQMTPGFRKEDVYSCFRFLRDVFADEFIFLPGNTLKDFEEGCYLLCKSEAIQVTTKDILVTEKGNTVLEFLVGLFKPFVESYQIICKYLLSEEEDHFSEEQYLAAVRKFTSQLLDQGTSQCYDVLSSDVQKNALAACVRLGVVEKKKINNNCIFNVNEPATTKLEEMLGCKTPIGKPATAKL
UniProt Q9Y223: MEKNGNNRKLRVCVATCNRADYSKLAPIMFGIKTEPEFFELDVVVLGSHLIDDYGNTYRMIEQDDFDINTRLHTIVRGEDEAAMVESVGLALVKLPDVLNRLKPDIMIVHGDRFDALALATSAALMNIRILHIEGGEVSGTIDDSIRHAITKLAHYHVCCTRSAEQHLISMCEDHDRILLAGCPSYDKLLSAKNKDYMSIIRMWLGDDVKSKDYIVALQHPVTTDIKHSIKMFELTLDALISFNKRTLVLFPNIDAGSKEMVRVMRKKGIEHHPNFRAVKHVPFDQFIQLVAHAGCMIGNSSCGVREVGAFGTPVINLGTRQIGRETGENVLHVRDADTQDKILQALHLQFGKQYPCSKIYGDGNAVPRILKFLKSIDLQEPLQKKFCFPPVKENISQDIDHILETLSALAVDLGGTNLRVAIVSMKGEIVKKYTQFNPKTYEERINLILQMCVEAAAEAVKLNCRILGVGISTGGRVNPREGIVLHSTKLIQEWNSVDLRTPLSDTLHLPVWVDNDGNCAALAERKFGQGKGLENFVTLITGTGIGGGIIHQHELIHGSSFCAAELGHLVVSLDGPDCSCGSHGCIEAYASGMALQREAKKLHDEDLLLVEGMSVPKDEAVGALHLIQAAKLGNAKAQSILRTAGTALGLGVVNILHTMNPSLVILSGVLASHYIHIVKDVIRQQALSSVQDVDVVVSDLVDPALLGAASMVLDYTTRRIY
UniProt Q9BVP2: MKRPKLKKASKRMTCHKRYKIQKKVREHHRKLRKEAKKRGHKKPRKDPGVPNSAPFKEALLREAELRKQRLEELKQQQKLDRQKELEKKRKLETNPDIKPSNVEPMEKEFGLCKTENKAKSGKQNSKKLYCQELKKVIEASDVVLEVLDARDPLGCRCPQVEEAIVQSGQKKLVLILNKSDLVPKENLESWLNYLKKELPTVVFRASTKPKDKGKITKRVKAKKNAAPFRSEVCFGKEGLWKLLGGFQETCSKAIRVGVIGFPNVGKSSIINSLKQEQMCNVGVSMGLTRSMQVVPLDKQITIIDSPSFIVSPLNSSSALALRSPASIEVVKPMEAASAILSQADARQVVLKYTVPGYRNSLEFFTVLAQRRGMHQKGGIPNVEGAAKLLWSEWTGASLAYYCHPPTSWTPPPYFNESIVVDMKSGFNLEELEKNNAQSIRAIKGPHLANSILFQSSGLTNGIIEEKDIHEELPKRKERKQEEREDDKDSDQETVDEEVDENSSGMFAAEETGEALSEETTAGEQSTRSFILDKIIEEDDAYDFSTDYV
UniProt Q9UJJ9: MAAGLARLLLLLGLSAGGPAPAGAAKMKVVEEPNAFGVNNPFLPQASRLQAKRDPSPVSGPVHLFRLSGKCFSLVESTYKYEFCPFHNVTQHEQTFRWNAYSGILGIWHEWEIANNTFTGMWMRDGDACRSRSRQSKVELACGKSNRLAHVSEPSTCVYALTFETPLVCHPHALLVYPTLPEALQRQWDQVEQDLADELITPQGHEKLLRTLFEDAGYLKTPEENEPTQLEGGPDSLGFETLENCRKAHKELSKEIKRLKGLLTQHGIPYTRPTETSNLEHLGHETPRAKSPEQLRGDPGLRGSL
UniProt Q49A26: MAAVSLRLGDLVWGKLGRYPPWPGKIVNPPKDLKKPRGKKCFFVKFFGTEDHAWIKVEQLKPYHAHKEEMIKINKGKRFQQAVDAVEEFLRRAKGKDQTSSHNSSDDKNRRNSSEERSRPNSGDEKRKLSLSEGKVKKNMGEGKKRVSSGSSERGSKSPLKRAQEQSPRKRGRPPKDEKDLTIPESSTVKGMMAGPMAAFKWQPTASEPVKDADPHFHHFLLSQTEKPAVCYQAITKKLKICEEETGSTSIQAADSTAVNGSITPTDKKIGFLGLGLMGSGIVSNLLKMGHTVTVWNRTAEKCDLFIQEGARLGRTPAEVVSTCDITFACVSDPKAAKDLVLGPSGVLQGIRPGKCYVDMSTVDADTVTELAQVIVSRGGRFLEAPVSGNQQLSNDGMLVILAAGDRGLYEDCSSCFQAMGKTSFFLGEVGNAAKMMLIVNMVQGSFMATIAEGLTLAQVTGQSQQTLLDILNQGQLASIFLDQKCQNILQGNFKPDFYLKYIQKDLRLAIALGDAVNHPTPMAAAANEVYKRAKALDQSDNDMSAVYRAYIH
UniProt Q9UHW5, whole entry, looked up: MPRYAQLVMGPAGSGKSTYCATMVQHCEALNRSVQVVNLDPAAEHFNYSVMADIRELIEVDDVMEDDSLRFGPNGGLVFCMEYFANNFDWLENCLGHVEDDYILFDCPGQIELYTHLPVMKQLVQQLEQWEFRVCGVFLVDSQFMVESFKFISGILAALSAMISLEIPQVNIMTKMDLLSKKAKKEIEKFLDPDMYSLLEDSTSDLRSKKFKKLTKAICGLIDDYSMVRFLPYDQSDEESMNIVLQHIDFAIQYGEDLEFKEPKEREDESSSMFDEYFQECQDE
UniProt Q8N954: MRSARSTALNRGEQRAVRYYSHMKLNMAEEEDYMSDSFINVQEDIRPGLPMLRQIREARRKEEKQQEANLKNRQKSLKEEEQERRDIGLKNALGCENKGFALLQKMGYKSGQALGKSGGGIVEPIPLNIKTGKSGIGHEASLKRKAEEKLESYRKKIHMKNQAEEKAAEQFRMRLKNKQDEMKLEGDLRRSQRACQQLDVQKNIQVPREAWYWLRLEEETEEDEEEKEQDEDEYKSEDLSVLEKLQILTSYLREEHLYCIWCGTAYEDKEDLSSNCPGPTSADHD
UniProt O75223: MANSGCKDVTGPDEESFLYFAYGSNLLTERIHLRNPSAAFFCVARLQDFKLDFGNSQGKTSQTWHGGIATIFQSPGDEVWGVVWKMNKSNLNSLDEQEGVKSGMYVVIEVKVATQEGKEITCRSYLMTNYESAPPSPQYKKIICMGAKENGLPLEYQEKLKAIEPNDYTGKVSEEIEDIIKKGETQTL
UniProt Q5JWF2, whole entry, looked up: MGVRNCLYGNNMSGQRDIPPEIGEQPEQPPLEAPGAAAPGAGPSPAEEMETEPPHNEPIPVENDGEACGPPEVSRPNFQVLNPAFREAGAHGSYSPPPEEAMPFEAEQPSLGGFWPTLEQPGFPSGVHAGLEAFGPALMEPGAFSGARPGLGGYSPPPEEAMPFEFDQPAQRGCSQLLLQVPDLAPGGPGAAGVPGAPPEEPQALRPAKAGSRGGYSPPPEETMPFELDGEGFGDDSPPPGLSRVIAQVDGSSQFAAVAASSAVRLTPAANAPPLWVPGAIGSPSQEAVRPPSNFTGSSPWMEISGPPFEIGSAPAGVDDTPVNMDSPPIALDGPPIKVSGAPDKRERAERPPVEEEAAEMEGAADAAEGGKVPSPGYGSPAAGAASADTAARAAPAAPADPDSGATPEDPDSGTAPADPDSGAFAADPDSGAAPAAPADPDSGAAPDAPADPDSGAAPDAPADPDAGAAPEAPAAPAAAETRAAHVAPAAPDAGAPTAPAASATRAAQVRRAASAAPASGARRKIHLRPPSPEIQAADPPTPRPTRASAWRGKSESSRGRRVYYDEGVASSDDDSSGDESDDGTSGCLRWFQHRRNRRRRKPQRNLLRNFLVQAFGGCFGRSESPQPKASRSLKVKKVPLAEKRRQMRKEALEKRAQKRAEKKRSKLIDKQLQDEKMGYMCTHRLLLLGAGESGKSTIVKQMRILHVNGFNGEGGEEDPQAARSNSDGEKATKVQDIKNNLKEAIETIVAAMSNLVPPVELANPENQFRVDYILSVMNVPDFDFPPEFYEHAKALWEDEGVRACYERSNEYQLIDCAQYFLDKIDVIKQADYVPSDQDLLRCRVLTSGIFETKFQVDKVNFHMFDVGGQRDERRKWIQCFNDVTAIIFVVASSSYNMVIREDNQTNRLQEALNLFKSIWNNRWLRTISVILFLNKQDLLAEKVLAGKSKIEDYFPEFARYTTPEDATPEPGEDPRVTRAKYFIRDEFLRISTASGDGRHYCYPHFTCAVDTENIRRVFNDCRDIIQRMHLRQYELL
UniProt P17174: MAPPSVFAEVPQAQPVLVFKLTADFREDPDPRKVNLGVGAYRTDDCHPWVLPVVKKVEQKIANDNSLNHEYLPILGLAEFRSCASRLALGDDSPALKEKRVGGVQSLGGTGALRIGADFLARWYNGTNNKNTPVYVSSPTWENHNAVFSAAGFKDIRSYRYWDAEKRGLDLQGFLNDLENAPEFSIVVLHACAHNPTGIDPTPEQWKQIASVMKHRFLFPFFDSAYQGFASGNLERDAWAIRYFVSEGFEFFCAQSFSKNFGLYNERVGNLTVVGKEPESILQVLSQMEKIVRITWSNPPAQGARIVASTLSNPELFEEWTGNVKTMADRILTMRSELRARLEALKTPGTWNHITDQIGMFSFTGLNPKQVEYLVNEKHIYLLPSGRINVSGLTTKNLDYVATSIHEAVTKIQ
UniProt Q9NWU2, whole entry, looked up: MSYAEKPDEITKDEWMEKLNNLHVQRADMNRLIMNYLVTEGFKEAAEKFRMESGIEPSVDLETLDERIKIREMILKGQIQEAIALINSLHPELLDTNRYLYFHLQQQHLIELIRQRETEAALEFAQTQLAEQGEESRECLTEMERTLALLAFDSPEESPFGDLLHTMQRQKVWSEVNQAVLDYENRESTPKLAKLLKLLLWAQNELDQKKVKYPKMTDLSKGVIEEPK
UniProt P50148, whole entry, looked up: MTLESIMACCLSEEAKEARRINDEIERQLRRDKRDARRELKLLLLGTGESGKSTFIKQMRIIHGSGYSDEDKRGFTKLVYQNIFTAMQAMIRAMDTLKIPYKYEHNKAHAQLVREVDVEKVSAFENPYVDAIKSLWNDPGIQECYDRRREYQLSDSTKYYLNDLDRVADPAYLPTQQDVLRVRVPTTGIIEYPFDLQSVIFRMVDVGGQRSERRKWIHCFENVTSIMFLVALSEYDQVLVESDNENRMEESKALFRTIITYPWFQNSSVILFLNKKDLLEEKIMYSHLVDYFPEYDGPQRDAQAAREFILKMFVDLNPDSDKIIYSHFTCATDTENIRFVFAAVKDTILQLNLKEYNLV
UniProt Q9NVN8: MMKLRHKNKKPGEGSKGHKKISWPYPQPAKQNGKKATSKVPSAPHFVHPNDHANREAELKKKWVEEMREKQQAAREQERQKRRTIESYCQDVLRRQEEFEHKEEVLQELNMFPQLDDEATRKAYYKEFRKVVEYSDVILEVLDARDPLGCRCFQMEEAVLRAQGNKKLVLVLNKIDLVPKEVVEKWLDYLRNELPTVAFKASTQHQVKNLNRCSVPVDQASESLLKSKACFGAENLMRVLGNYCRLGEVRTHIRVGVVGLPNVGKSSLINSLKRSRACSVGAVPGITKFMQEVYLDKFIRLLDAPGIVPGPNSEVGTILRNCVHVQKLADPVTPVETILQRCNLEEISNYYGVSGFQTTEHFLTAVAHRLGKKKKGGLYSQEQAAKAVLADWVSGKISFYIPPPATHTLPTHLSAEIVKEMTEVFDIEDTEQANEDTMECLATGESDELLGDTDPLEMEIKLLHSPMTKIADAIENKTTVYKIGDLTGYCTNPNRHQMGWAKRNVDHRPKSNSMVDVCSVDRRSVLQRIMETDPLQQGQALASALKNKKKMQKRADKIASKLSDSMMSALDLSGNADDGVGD
UniProt P08754, whole entry, looked up: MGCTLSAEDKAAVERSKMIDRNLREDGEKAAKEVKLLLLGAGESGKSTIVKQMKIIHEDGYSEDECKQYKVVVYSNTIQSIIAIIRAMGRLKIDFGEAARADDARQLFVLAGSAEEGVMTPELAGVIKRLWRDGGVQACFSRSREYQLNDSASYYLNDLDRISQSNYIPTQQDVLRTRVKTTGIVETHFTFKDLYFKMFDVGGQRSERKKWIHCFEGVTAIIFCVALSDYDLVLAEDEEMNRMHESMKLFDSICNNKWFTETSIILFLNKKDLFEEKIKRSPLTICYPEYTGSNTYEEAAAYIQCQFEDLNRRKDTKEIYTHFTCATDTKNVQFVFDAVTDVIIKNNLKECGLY

How the values were obtained:
Assay in all cases: log2 fold change, soluble protein after heating vs DMSO (PISA); higher = thermal stabilisation; K562 lysate, 10 uM; active = over 0.2 and 3.5 SD of the protein, either way, in both replicates (recomputed)
[1] = compound: CS(=O)(=O)CCNCc1ccc(-c2ccc3ncnc(Nc4ccc(OCc5cccc(F)c5)c(Cl)c4)c3c2)o1 [lapatinib]
How it was run: (§1)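 Following dounce homogenisation of K562 pellets in PBS pH 7.4 with 1 mM MgCl2, crude extract at 1 mg/mL protein was incubated for 30 min with 10 μM compound. Aliquots were then heated for 3 min over 48°C-58°C and pooled, NP-40 was added to 0.5% at 4°C, and soluble protein was recovered as the supernatant at 21,000xg for 90 min. Channel-sum-equalised TMTpro 16plex LC-MS/MS quantified this protein. Each value, from duplicates, is a log-two fold change in thermal stability relative to solvent controls.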

[2] = compound: CS(=O)(=O)N1CCN(Cc2cc3nc(-c4cccc5[nH]ncc45)nc(N4CCOCC4)c3s2)CC1 [pictilisib]
How it was run: as §1

[3] = compound: C[C@@H](Oc1cc(-c2cnn(C3CCNCC3)c2)cnc1N)c1c(Cl)ccc(F)c1Cl [crizotinib]
How it was run: as §1

[4] = compound: C[C@H](C1=CC=C(C=C1)C(=O)NC2=C3C=CNC3=NC=C2)N
How it was run: as §1

[5] = compound: C[C@H](Nc1ncnc2nc[nH]c12)c1cc2cccc(Cl)c2c(=O)n1-c1ccccc1 [duvelisib]
How it was run: as §1

[6] = compound: Cc1cc(Nc2cc(CN3CCOCC3)c3nc(C)c(Cc4ccc(Cl)cc4F)n3n2)n[nH]1 [gandotinib]
How it was run: as §1

[7] = compound: Cc1cc(Nc2cc(N3CCN(C)CC3)nc(Sc3ccc(NC(=O)C4CC4)cc3)n2)n[nH]1 [tozasertib]
How it was run: as §1

[8] = compound: Cc1ccc(-n2nc(C(C)(C)C)cc2NC(=O)Nc2ccc(OCCN3CCOCC3)c3ccccc23)cc1 [doramapimod]
How it was run: as §1

[9] = compound: Cc1ccc(NC(=O)c2ccc(CN3CC[C@H](N(C)C)C3)c(C(F)(F)F)c2)cc1Nc1nccc(-c2cncnc2)n1 [bafetinib]
How it was run: as §1

[10] = compound: Cc1cccc(CC(=O)N2CCc3c2ccc(-c2cn(C)c4ncnc(N)c24)c3F)n1
How it was run: as §1

[11] = compound: Cc1cn(-c2cc(NC(=O)c3ccc(C)c(Nc4nccc(-c5cccnc5)n4)c3)cc(C(F)(F)F)c2)cn1 [nilotinib]
How it was run: as §1

[12] = compound: Cc1nc(Nc2n[nH]c3c2CN(C(=O)N[C@H](CN(C)C)c2ccccc2)C3(C)C)c2sccc2n1
How it was run: as §1

[13] = compound: Cc1nc(Nc2ncc(C(=O)Nc3c(C)cccc3Cl)s2)cc(N2CCN(CCO)CC2)n1 [dasatinib]
How it was run: as §1

[14] = compound: Cc1ncc(-c2ccnc(Nc3ccc(S(C)(=O)=O)cc3)n2)n1C(C)C
How it was run: as §1

[15] = compound: Cn1cc(-c2ccc3c(c2)CCN3C(=O)Cc2cccc(C(F)(F)F)c2)c2c(N)ncnc21
How it was run: as §1

[16] = compound: Cn1cc(CNCC2CCN(c3ncc(C(=O)NO)cn3)CC2)c2ccccc21 [quisinostat]
How it was run: as §1

[17] = compound: Cn1cncc1[C@@](N)(c1ccc(Cl)cc1)c1ccc2c(c1)c(-c1cccc(Cl)c1)cc(=O)n2C [tipifarnib]
How it was run: as §1

[18] = compound: NC(=O)Nc1cc(-c2cccc(F)c2)sc1C(=O)N[C@H]1CCCNC1
How it was run: as §1

[19] = compound: NC(=O)c1cnc(N[C@@H]2CCCC[C@@H]2N)nc1Nc1cccc(-n2nccn2)c1
How it was run: as §1

[20] = compound: NC1(c2ccc(-c3nc4ccn5c(=O)[nH]nc5c4cc3-c3ccccc3)cc2)CCC1
How it was run: as §1

Measured: log2 fold change

GNPAT (UniProt O15228)
inactive: [1] -0.025 | [2] -0.047 | [3] -0.144 | [4] -0.039 | [5] -0.017 | [6] 0.107 | [7] 0.004 | [8] 0.029 | [9] -0.106 | [10] 0.145 | [11] 0.003 | [12] 0.037 | [13] -0.059 | [14] 0.021 | [15] 0.01 | [16] 0.122 | [17] -0.08 | [18] 0.011 | [19] 0.013 | [20] -0.062

GNE isoform 2 (UniProt Q9Y223)
inactive: [1] 0.012 | [2] -0.005 | [3] -0.053 | [4] -0.01 | [5] -0.011 | [6] -0.127 | [7] -0.008 | [8] 0.021 | [9] -0.031 | [10] 0.034 | [11] -0.013 | [12] -0.003 | [13] 0.003 | [14] -0.081 | [15] 0.025 | [16] -0.042 | [17] 0.008 | [18] 0.061 | [19] -0.008 | [20] -0.006

GNL3 (UniProt Q9BVP2)
inactive: [1] -0.058 | [2] -0.018 | [3] -0.134 | [4] 0.097 | [5] 0.004 | [6] -0.115 | [7] -0.013 | [8] 0.039 | [9] -0.128 | [10] -0.031 | [11] 0.008 | [12] -0.022 | [13] -0.005 | [14] 0.029 | [15] -0.003 | [16] -0.164 | [17] 0.013 | [18] 0.038 | [19] 0.022 | [20] -0.031

GOLGA7 (UniProt Q7Z5G4)
inactive: [1] 0.006 | [2] -0.062 | [3] 0.012 | [4] -0.04 | [5] 0.009 | [6] -0.017 | [7] -0.003 | [8] 0.036 | [9] -0.062 | [10] 0.004 | [11] -0.007 | [12] 0.009 | [13] -0.014 | [14] -0.069 | [15] 0.015 | [16] -0.012 | [17] 0.017 | [18] -0.035 | [19] 0.003 | [20] -0.005

GNPTG (UniProt Q9UJJ9)
inactive: [1] -0.104 | [2] -0.078 | [3] -0.077 | [4] -0.031 | [5] 0.093 | [6] -0.038 | [7] -0.195 | [8] 0.017 | [9] 0.168 | [10] 0.026 | [11] -0.102 | [12] -0.031 | [13] -0.072 | [14] 0.04 | [15] -0.052 | [16] -0.006 | [17] -0.063 | [18] 0.044 | [19] 0.016 | [20] 0.093

GLYR1 (UniProt Q49A26)
inactive: [1] 0.053 | [2] 0.045 | [3] -0.058 | [4] 0.019 | [5] -0.079 | [6] 0.045 | [7] -0.044 | [8] 0.11 | [9] -0.042 | [10] -0.04 | [11] 0.082 | [12] 0.02 | [13] -0.053 | [14] 0.053 | [15] -0.048 | [16] -0.119 | [17] -0.12 | [18] -0.049 | [19] -0.012 | [20] 0.023

GPN3 isoform 2 (UniProt Q9UHW5)
inactive: [1] 0.011 | [2] -0.024 | [3] -0.015 | [4] -0.086 | [5] -0.072 | [6] 0.13 | [7] 0.019 | [8] 0.001 | [9] 0.024 | [10] 0.01 | [11] -0.07 | [12] -0.002 | [13] 0.058 | [14] 0.002 | [15] -0.052 | [16] -0.041 | [17] -0.038 | [18] 0.008 | [19] 0.025 | [20] -0.048

GPATCH11 (UniProt Q8N954)
inactive: [1] -0.002 | [2] -0.018 | [3] 0.01 | [4] -0.031 | [5] 0.006 | [6] 0.044 | [7] 0.024 | [8] 0.026 | [9] -0.013 | [10] 0.029 | [11] -0.028 | [12] 0.04 | [13] 0.018 | [14] 0.011 | [15] 0.012 | [16] -0.012 | [17] -0.031 | [18] 0.012 | [19] 0.009 | [20] 0.013

GGCT (UniProt O75223)
inactive: [1] 0.014 | [2] 0.022 | [3] 0 | [4] -0.024 | [5] -0.01 | [6] 0.062 | [7] -0.001 | [8] 0.034 | [9] -0.016 | [10] -0.008 | [11] 0.052 | [12] 0.037 | [13] 0.008 | [14] 0.028 | [15] -0.002 | [16] 0.051 | [17] 0.023 | [18] -0.013 | [19] -0.005 | [20] 0.002

GLE1 (UniProt Q53GS7)
inactive: [1] -0.017 | [2] 0.178 | [3] -0.089 | [4] -0.247 | [5] -0.107 | [6] -0.135 | [7] 0.057 | [8] -0.062 | [9] 0.198 | [10] 0.027 | [11] 0.073 | [12] -0.052 | [13] 0.007 | [14] -0.075 | [15] -0.039 | [16] -0.007 | [17] -0.054 | [18] 0.153 | [19] 0.085 | [20] -0.098

GNAS (UniProt Q5JWF2)
inactive: [1] -0.021 | [2] -0.02 | [3] 0.007 | [4] 0.139 | [5] 0.027 | [6] -0.093 | [7] 0.024 | [8] -0.012 | [9] 0.019 | [10] -0.102 | [11] 0.016 | [12] -0.035 | [13] -0.001 | [14] 0.002 | [15] 0.028 | [16] -0.012 | [17] 0.021 | [18] 0.038 | [19] -0.01 | [20] -0.007

GOT1 (UniProt P17174)
inactive: [1] -0.012 | [2] -0.023 | [3] 0.011 | [4] -0.022 | [5] -0.007 | [6] 0.051 | [7] 0.007 | [8] -0.007 | [9] 0.111 | [10] -0.009 | [11] 0.038 | [12] -0.015 | [13] 0.012 | [14] 0.004 | [15] -0.003 | [16] 0.025 | [17] 0.025 | [18] -0.03 | [19] 0.003 | [20] 0.025

GID8 (UniProt Q9NWU2)
inactive: [1] -0.003 | [2] -0.037 | [3] 0.007 | [4] 0.032 | [5] -0.003 | [6] -0.029 | [7] -0.036 | [8] -0.028 | [9] -0.02 | [10] 0.018 | [11] 0.021 | [12] 0.015 | [13] -0.032 | [14] 0.055 | [15] 0 | [16] -0.06 | [17] -0.025 | [18] -0.001 | [19] 0.008 | [20] -0.037

GNAQ (UniProt P50148)
inactive: [1] -0.01 | [2] -0.109 | [3] 0.036 | [4] -0.003 | [5] 0.028 | [6] 0.018 | [7] -0.003 | [8] -0.071 | [9] -0.003 | [10] 0.018 | [11] 0.032 | [12] 0.091 | [13] 0.042 | [14] 0.068 | [15] 0.083 | [16] 0.004 | [17] 0.066 | [18] -0.059 | [19] 0.037 | [20] 0.049

GNL3L (UniProt Q9NVN8)
inactive: [1] 0.028 | [2] 0.019 | [3] -0.061 | [4] -0.012 | [5] 0.029 | [6] 0.089 | [7] -0.031 | [8] 0.014 | [9] -0.228 | [10] 0.081 | [11] 0.035 | [12] -0.004 | [13] 0.014 | [14] -0.04 | [15] 0.089 | [16] -0.155 | [17] 0.006 | [18] 0.037 | [19] -0.233 | [20] -0.059

GNAI3 (UniProt P08754)
inactive: [1] 0.014 | [2] 0.032 | [3] 0.007 | [4] -0.032 | [5] -0.048 | [6] 0.004 | [7] 0.026 | [8] 0.019 | [9] 0.051 | [10] 0.007 | [11] -0.006 | [12] -0.004 | [13] 0.105 | [14] 0.028 | [15] 0.018 | [16] -0.055 | [17] 0.068 | [18] 0.011 | [19] 0.03 | [20] -0.001

2 neighbouring records out of the list so far:
GID8 (UniProt Q9NWU2)
inactive: [1] -0.003 | [2] -0.037 | [3] 0.007 | [4] 0.032 | [5] -0.003 | [6] -0.029 | [7] -0.036 | [8] -0.028 | [9] -0.02 | [10] 0.018 | [11] 0.021 | [12] 0.015 | [13] -0.032 | [14] 0.055 | [15] 0 | [16] -0.06 | [17] -0.025 | [18] -0.001 | [19] 0.008 | [20] -0.037

GNAQ (UniProt P50148)
inactive: [1] -0.01 | [2] -0.109 | [3] 0.036 | [4] -0.003 | [5] 0.028 | [6] 0.018 | [7] -0.003 | [8] -0.071 | [9] -0.003 | [10] 0.018 | [11] 0.032 | [12] 0.091 | [13] 0.042 | [14] 0.068 | [15] 0.083 | [16] 0.004 | [17] 0.066 | [18] -0.059 | [19] 0.037 | [20] 0.049
